For nine molecules, binding results are on record in article PMC6796953.

Chains of the proteins cited; added tags and fusions are not shown.
UniProt Q8BG05: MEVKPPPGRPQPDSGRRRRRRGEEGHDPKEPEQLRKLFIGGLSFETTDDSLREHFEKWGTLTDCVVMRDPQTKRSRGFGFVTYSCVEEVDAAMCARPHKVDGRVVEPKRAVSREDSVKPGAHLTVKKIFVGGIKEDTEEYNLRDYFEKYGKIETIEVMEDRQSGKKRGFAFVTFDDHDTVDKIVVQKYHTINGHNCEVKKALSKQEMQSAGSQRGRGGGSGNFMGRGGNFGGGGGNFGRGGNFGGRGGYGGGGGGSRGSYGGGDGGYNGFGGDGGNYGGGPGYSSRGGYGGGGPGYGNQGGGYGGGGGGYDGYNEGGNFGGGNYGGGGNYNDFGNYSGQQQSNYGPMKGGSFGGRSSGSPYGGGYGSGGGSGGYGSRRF
UniProt P29341: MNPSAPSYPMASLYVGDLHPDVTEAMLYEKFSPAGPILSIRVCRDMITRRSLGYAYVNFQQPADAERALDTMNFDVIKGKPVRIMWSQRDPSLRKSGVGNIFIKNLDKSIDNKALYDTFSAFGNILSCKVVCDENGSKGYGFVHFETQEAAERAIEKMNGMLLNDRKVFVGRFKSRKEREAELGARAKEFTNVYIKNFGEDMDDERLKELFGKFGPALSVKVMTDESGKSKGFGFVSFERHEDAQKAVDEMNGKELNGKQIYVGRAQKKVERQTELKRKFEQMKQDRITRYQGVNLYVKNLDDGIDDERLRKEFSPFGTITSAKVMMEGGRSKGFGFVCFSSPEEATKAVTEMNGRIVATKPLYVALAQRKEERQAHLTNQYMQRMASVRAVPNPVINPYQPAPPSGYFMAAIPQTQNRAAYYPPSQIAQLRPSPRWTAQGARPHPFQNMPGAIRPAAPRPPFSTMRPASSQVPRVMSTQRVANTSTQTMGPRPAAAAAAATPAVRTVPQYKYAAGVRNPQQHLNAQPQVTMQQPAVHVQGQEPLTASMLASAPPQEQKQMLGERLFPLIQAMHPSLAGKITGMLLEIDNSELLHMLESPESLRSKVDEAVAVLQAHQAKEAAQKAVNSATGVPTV
UniProt O88569: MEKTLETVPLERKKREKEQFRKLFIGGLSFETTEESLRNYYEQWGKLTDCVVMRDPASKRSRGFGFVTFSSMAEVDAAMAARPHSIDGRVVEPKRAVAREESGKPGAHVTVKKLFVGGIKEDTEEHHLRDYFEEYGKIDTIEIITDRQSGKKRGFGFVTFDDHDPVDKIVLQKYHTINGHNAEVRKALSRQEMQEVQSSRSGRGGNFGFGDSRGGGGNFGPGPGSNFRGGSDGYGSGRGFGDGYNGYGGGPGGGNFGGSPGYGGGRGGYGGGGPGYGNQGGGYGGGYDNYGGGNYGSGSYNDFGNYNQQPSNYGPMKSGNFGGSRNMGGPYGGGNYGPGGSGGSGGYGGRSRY

To fix the notation:
T1: Flag-mRbm14 (mouse) (UniProt Q8C2Q3)
T1 sequence: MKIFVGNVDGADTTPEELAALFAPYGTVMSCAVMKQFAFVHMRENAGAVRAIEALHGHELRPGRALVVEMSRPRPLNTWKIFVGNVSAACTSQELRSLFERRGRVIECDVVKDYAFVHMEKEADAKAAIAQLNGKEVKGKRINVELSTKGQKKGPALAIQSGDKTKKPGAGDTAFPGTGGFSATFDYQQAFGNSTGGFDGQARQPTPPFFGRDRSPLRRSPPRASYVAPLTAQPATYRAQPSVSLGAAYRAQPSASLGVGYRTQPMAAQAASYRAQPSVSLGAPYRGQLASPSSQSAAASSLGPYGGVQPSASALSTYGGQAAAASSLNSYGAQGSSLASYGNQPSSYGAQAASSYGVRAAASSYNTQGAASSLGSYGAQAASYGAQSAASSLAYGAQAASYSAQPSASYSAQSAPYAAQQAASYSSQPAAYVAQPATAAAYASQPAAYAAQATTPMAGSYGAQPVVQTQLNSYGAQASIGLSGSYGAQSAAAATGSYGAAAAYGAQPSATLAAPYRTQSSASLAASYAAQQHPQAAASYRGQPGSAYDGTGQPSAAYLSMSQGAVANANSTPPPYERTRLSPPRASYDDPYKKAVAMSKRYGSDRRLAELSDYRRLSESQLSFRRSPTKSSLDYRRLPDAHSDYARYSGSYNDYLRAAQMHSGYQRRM

B1: hnRNPDL (mouse) (protein, UniProt Q9Z130 1-301)
chain: MEDMNEYSNIEEFAEGSKINASKNQQDDGKMFIGGLSWDTSKKDLTEYLSRFGEVVDCTIKTDPVTGRSRGFGFVLFKDAASVDKVLELKEHKLDGKLIDPKRAKALKGKEPPKKVFVGGLSPDTSEEQIKEYFGAFGEIENIELPMDTKTNERRGFCFITYTDEEPVKKLLESRYHQIGSGKCEIKVAQPKEVYRQQQQQQKGGRGAAAGGRGGARGRGRGQGQNWNQGFNNYYDQGYGNYNSAYGGDQNYSGYGGYDYTGYNYGNYGYGQGYADYSGQQSTYGKASRGGGNHQNNYQPY
B2: hnRNPF (mouse) (protein, UniProt Q9Z2X1 1-415)
chain: MMLGPEGGEGYVVKLRGLPWSCSIEDVQNFLSDCTIHDGVAGVHFIYTREGRQSGEAFVELESEDDVKLALKKDRESMGHRYIEVFKSHRTEMDWVLKHSGPNSADSANDGFVRLRGLPFGCTKEEIVQFFSGLEIVPNGITLPVDPEGKITGEAFVQFASQELAEKALGKHKERIGHRYIEVFKSSQEEVRSYSDPPLKFMSVQRPGPYDRPGTARRYIGIVKQAGLDRMRSGAYSAGYGGYEEYSGLSDGYGFTTDLFGRDLSYCLSGMYDHRYGDSEFTVQSTTGHCVHMRGLPYKATENDIYNFFSPLNPVRVHIEIGPDGRVTGEADVEFATHEEAVAAMSKDRANMQHRYIELFLNSTTGASNGAYSSQVMQGMGVSAAQATYSGLESQSVSGCYGAGYSGQNSMGGYD
B3: Nanog (mouse) (protein, UniProt Q80Z64 1-305)
chain: MSVGLPGPHSLPSSEEASNSGNASSMPAVFHPENYSCLQGSATEMLCTEAASPRPSSEDLPLQGSPDSSTSPKQKLSSPEADKGPEEEENKVLARKQKMRTVFSQAQLCALKDRFQKQKYLSLQQMQELSSILNLSYKQVKTWFQNQRMKCKRWQKNQWLKTSNGLIQKGSAPVEYPSIHCSYPQGYLVNASGSLSMWGSQTWTNPTWSSQTWTNPTWNNQTWTNPTWSSQAWTAQSWNGQPWNAAPLHNFGEDFLQPYVQLQQNFSASDLEVNLEATRESHAHFSTPQALELFLNYSVTPPGEI
B4: hnRNPH1 (mouse) (protein, UniProt O35737 1-449)
chain: MMLGAEGGEGFVVKVRGLPWSCSADEVQRFFSDCKIQNGAQGIRFIYTREGRPSGEAFVELESEDEVKLALKKDRETMGHRYVEVFKSNNVEMDWVLKHTGPNSPDTANDGFVRLRGLPFGCSKEEIVQFFSGLEIVPNGITLPVDFQGRSTGEAFVQFASQEIAEKALKKHKERIGHRYIEIFKSSRAEVRTHYDPPRKLMAMQRPGPYDRPGAGRGYNSIGRGAGFERMRRGAYGGGYGGYDDYNGYNDGYGFGSDRFGRDLNYCFSGMSDHRYGDGGSTFQSTTGHCVHMRGLPYRATENDIYNFFSPLNPVRVHIEIGPDGRVTGEADVEFATHEDAVAAMSKDKANMQHRYVELFLNSTAGASGGAYEHRYVELFLNSTAGASGGAYGSQMMGGMGLSNQSSYGGPASQQLSGGYGGGYGGQSSMSGYDQVLQENSSDFQSNIA

These are yes or no findings as the source states them, for the method shown. Binding seen in cells or lysates may run through a third protein. These calls come from enrichment with a bait or labelling near it, and not all partners need be listed. A no says only that the protein was not detected with the bait. Sequences can lack the tags named with a protein.

In the test the target is T1, Flag-mRbm14 (mouse). In words: affinity purification with mass spectrometry; Flag-mRbm14 or Flag-GFP expressed in mouse embryonic stem cells, immunoprecipitated with anti-Flag resin; shotgun mass spectrometry of the immunoprecipitates.
Regarding “hnRNPA3 (mouse) (from UniProt Q8BG05 1-379)”, the binding entry was “binds”.
The value for hnRNPL1 (mouse) was “binds”; that for “hnRNPK (mouse) (from UniProt P61979 1-463)” was “binds”; that for “poly(A)-binding protein (Pabpc1) (from UniProt P29341 1-636)” was “binds”.
Under “hnRNPA2B1 (mouse) (from UniProt O88569 1-353)” stands “binds”; under B1, “binds”.
As for B2, the binding entry is reported as “binds”.
As for B3, the binding result is recorded as “no binding”.
Under B4 stands “binds”.
